Assay results: patent US11691972B2, “Compounds for targeted degradation of BRD9” (C4 Therapeutics, Inc., priority 2020, dated 2023)

Sequences of proteins named here, by UniProt entry; tags and fusion partners are left off.
UniProt Q9H8M2, whole entry: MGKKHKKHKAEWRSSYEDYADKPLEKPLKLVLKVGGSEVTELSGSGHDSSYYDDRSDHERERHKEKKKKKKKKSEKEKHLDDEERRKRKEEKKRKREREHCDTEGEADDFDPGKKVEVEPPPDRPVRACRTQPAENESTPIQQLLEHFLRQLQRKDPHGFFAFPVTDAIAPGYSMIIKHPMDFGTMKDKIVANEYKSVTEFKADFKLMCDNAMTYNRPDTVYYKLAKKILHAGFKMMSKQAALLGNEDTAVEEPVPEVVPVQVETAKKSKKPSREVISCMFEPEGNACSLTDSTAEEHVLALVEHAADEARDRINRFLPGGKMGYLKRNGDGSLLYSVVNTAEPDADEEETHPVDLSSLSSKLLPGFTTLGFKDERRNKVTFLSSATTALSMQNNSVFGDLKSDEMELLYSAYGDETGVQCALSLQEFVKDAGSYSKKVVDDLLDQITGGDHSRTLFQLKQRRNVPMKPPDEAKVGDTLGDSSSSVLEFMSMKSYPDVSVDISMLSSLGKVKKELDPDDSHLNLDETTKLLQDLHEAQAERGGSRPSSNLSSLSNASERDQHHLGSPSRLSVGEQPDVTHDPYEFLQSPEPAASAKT

Target: BRD9 (Homo sapiens, UniProt Q9H8M2)
Assay: HiBiT BRD9 degradation assay in 293T.166 (BRD9-HiBiT) cells
Procedure: Selected compounds were tested in a BRD9 degradation assay using the HiBit Method.
Dulbecco's modified Eagle medium (DMEM) without phenol red and fetal bovine serum (FBS) were purchased from Gibco (Grand Island, N.Y., USA). Nano-Glo® HiBiT Lytic Assay System was purchased from Promega (Madison, Wis., USA). 293T.166 (BRD9-HiBiT) cell line, endogenously expressing BRD9 with HiBiT fusion tag via CRISPR and ectopically expressing LgBiT tag, was purchased from Promega (Madison, Wis., USA). 293T.167 (BRD7-HiBiT) cell line, endogenously expressing BRD7 with HiBiT fusion tag via CRISPR and ectopically expressing LgBiT tag, was purchased from Promega (Madison, Wis., USA). 293T.92 (BRD4-HiBiT) cell line, endogenously expressing BRD4 with HiBiT fusion tag via CRISPR and ectopically expressing LgBiT tag, was generated in-house. Cell culture flasks and 384-well microplates were acquired from VWR (Radnor, Pa., USA).
BRD9 degradation was determined based on quantification of luminescent signal using Nano-Glo® HiBiT Lytic Assay kit. Test compounds were added to the 384-well plate from a top concentration of 10 μM with 11 points, half log titration in duplicates. 293T.166 cells were added into 384-well plates at a cell density of 10,000 cells per well. The plates were kept at 37° C. with 5% CO2 for 2 hours. BRD7 and BRD4 degradation was similarly determined with 293T.167 cells and 293T.92 cells, respectively. The cells treated in the absence of the test compound were the negative control and the cells without Nano-Glo® HiBiT Lytic reagent were the positive control. After 2-hour incubation, Nano-Glo® HiBiT Lytic Assay reagents were added to the cells. Luminescence was acquired on EnVision™ Multilabel Reader (PerkinElmer, Santa Clara, Calif., USA).

[1] = read-out: HiBiT-Degradation 293T.166 BRD9 2.0 hours (DC50), Table 2, 293T.166 cells, class symbols
[2] = read-out: HiBiT-Degradation 293T.166 BRD9 2.0 hours (DC50), Table 1, 293T.166 cells, class symbols

SMILES	DC50 [1] [nM]	DC50 [2] [nM]	DC50 (read-out: HiBiT-Degradation 293T.166 BRD9 2.0 hours (DC50), Table 2, 293T.166 cells, numeric bound) [nM]
Cc1c(-c2ccc(C(=O)N3CCC(N4CCN(c5ccc(NC6CCC(=O)NC6=O)cc5F)CC4)C(F)(F)C3)c(OC(F)(F)F)c2)cn(C)c(=O)c1C (single isomer, unassigned)	< 100		> 800
CC(c1ccc(-c2cn(C)c(=O)c3cnccc23)cc1OC(F)(F)F)N1CCC(N(C)C(=O)N2CCC(c3ccc(NC4CCC(=O)NC4=O)cc3F)CC2)CC1 (centres unmarked)		< 100	
COc1cc(-c2cn(C)c(=O)c3[nH]ncc23)cc(Cl)c1CN1CCC(N(C)C(=O)N2CCC(c3ccc(NC4CCC(=O)NC4=O)cc3F)CC2)CC1 (centres unmarked)		< 100	
Cn1cc(-c2ccc(C(=O)N3CCC(C4CCN(c5ccc(NC6CCC(=O)NC6=O)cc5F)CC4)CC3)c(OC(F)(F)F)c2)c2ccccc2c1=O (centres unmarked)		< 100	

The next lines start with results.

DC50 [1] [nM]	DC50 [2] [nM]	SMILES	DC50 (read-out: HiBiT-Degradation 293T.166 BRD9 2.0 hours (DC50), Table 2, 293T.166 cells, numeric bound) [nM]
< 100		COc1cc(-c2cn(C)c(=O)c3cnccc23)cc(Cl)c1CN1CCC(F)(CCC2CCN(c3ccc(NC4CCC(=O)NC4=O)cc3Cl)CC2)CC1 (centres unmarked)	
< 100		COc1cc(-c2cn(C)c(=O)c3cnccc23)cc(Cl)c1CN1CCC(N2CCN(c3c(F)cc(NC4CCC(=O)NC4=O)cc3F)CC2)C(F)(F)C1 (centres unmarked)	
< 100		COc1cc(-c2cn(C)c(=O)c3cnccc23)cc(Cl)c1CN1CCC(F)(C2CCN(c3ccc(NC4CCC(=O)NC4=O)cc3F)CC2)CC1 (centres unmarked)	

Read-outs that look alike come from different tables or passages of the source. Structures were worked out from names or drawings and are uncertain.
